{
  "source": "paper PMC4773767",
  "molecules": {"B1": {"name": "HA-Munc13-4 (protein, UniProt B2RUP2-2 1-1083)", "chain": "MATHLSHPQRRPLLRQAIKIRRRRVRDLQDPPPQATQEVQVQSHHFSPEERDLLYEEALYTVLHRLGQPEPNHVKEASELLSYLQEAFQVQPEEHQQMLRRVRELEKPVFCLKATVKQAKGILGKDVSGFSDPYCLLGIEQKVGVAEGSPVSRRRQKAVVKHTIPEEETHRTQVKSQTLNPVWDETFILEFEDIANASFHLDMWDLDTVESVRQKLGELTDLHGLRRIFKEARKDKGQDDFLGNVVLRLQDLRCREDQWFPLEPCTETYPDRGQCHLQFQFIHKRRATAASRSQPSYTVHFHLLQQLVSHEVTQHQAGSTSWDASLSPQAVTILFLHATQKDLSDFHQSMAQWLAYSRLYQSLEFPSSCLLHPITSIEYQWIQGRLKAEQREELATSFTSLLAYGLSLIRKFRSVFPLSVSDSPSRLQSLLRVLVQMCKMKAFGELCPDSAPLSQLVSEALRMGTVEWFHLMQQHHQPMGILEAGKALLNLVQDVMGDLYQCRRTWNKIFHNVLKIDLFSMAFLELQWLVAKRVQDHTVAAGNLVSPDIGESLFQLYVSLKELCQLGPVPSDSREVLALDGFHRWFQPAIPSWLQKTYSVALERVQRAVQMDTLVPLGELTKHSTSAVDLSTCFAQISHTARQLDWPDPEEAFMITVKFVEDTCRLALVYCSLIKARARELSAVQKDQSQAADMLCVVVNNMEQLRLIIDKLPTQLAWEALEQRVGAVLEEGQLQNTLHAQLQGALAGLGHEIRTGVRTLAEQLEVGIATHIQKLIGVKESVLPEDAILPLMKFLEVKLCYMNTNLVQENFSSLLTLLWTHTLTVLVEVASSQRSSSLASGRLKVALQNLEVCFHAEGCGLPPEALHTDTFQALQNDLELQAASSRELIQKYFCSRIQQQAETTSERLGAVTVKVSYRASEQRLRVELLSASSLLPLDSNGSSDPFVQLTLEPRHEFPEVAPRETQKHKKELHPLFDETFEFLVPAEPCQKAWACLLLTVLDHDRLGADDLEGEAFLPLCRVPGLTDCAEPGEAPQMRLPLTYPAPNGDPILRLLESRKGDREAQAFVKLRRQRAKQASQHAP"}, "B2": {"name": "FLAG-Munc13-4 (protein, UniProt B2RUP2-2 1-1083)", "chain": "B1 chain"}, "B3": {"name": "Munc13-4 expressed in transfected RBL-2H3 cells (protein, UniProt B2RUP2-2 1-1083)", "chain": "B1 chain"}},
  "key": {"[1]": {"target": "T1, FLAG-tagged Munc13-4 mutant 289–540 (mouse) (UniProt B2RUP2)", "T1 sequence": "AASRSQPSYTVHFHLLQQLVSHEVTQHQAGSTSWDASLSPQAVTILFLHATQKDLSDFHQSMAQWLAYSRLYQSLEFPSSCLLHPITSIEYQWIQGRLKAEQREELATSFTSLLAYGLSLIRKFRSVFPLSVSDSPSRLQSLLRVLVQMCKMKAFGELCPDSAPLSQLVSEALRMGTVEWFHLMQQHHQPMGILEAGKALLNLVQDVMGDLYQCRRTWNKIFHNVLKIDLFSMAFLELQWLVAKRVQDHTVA", "assay": "co-IP; COS7 cells co-transfected; lysed at 4 °C in 25 mM Tris-HCl pH 7.5, 125 mM NaCl, 1 mM MgCl2, 1% Triton X-100 without GTPγS (no nucleotide named, or 0.1 mM GDP in Fig. 5A); anti-FLAG (M2) or anti-HA (12CA5) on protein G-Sepharose overnight; blot with anti-HA (3F10) or anti-FLAG"}, "[2]": {"target": "T2, FLAG-tagged Munc13-4 mutant 339–540 (mouse) (UniProt B2RUP2)", "T2 sequence": "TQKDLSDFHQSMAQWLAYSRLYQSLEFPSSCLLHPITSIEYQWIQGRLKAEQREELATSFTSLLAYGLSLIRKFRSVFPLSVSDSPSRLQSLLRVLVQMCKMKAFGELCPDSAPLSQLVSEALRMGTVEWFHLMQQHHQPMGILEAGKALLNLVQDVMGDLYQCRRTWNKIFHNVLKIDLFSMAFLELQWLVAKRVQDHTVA", "assay": "co-IP; COS7 cells co-transfected; lysed at 4 °C in 25 mM Tris-HCl pH 7.5, 125 mM NaCl, 1 mM MgCl2, 1% Triton X-100 without GTPγS (no nucleotide named, or 0.1 mM GDP in Fig. 5A); anti-FLAG (M2) or anti-HA (12CA5) on protein G-Sepharose overnight; blot with anti-HA (3F10) or anti-FLAG"}, "[3]": {"target": "T3, FLAG-tagged Munc13-4 mutant MHDs (mouse) (UniProt B2RUP2)", "T3 sequence": "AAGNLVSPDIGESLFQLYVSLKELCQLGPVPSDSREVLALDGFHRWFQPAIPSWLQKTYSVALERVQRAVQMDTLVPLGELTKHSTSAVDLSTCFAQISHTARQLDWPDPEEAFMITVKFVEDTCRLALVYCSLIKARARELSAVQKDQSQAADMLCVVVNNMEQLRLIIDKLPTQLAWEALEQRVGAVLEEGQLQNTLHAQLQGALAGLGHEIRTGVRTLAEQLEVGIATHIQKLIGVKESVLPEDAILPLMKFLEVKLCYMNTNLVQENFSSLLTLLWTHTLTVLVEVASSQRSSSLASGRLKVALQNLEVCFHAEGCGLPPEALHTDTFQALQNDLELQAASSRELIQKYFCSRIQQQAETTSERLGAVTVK", "assay": "co-IP; COS7 cells co-transfected; lysed at 4 °C in 25 mM Tris-HCl pH 7.5, 125 mM NaCl, 1 mM MgCl2, 1% Triton X-100 without GTPγS (no nucleotide named, or 0.1 mM GDP in Fig. 5A); anti-FLAG (M2) or anti-HA (12CA5) on protein G-Sepharose overnight; blot with anti-HA (3F10) or anti-FLAG"}, "FLAG-Rab37 (rat) [4]": {"target": "FLAG-Rab37 (rat)", "assay": "co-IP; COS7 cells co-transfected; lysed at 4 °C in 25 mM Tris-HCl pH 7.5, 125 mM NaCl, 1 mM MgCl2, 1% Triton X-100 with 0.1 mM GTPγS; anti-FLAG (M2) on protein G-Sepharose overnight; blot with anti-HA (3F10) or anti-FLAG"}, "FLAG-Rab37 (rat) [5]": {"target": "FLAG-Rab37 (rat)", "assay": "co-IP; COS7 cells co-transfected; lysed at 4 °C in 25 mM Tris-HCl pH 7.5, 125 mM NaCl, 1 mM MgCl2, 1% Triton X-100 without GTPγS (no nucleotide named, or 0.1 mM GDP in Fig. 5A); anti-FLAG (M2) or anti-HA (12CA5) on protein G-Sepharose overnight; blot with anti-HA (3F10) or anti-FLAG"}, "[6]": {"target": "HA-tagged dominant-active Rab37 mutant (HA-Rab37DA) (rat)", "assay": "co-IP; COS7 cells co-transfected; lysed at 4 °C in 25 mM Tris-HCl pH 7.5, 125 mM NaCl, 1 mM MgCl2, 1% Triton X-100 without GTPγS (no nucleotide named, or 0.1 mM GDP in Fig. 5A); anti-FLAG (M2) or anti-HA (12CA5) on protein G-Sepharose overnight; blot with anti-HA (3F10) or anti-FLAG"}, "[7]": {"target": "HA-tagged dominant-negative Rab37 mutant (HA-Rab37DN) (rat)", "assay": "co-IP; COS7 cells co-transfected; lysed at 4 °C in 25 mM Tris-HCl pH 7.5, 125 mM NaCl, 1 mM MgCl2, 1% Triton X-100 without GTPγS (no nucleotide named, or 0.1 mM GDP in Fig. 5A); anti-FLAG (M2) or anti-HA (12CA5) on protein G-Sepharose overnight; blot with anti-HA (3F10) or anti-FLAG"}, "[8]": {"target": "Rab37 expressed in transfected RBL-2H3 cells (rat)", "assay": "co-IP; lysate from transfected RBL-2H3 cells pretreated with DSP, with or without antigen stimulation (Fig. S15)"}},
  "note": "These are yes or no findings as the source states them, for the method shown. In cells and extracts the contact can be indirect. For some assays here: A result given as binding can be weak or reduced; the word gives no strength. For some assays here: Sequences can lack the tags named with a protein.",
  "data": [
    {"molecule": "HA-tagged dominant-active Rab37 mutant (HA-Rab37DA) (rat)", "values": [
      {"measurement": "binding", "setting": "[1]", "value": "no binding"},
      {"measurement": "binding", "setting": "[2]", "value": "no binding"},
      {"measurement": "binding", "setting": "[3]", "value": "binds"}
    ]},
    {"molecule": "B1", "values": [
      {"measurement": "binding", "setting": "FLAG-Rab37 (rat) [4]", "value": "binds"},
      {"measurement": "binding", "setting": "FLAG-Rab37 (rat) [5]", "value": "binds"}
    ]},
    {"molecule": "B2", "values": [
      {"measurement": "binding", "setting": "[6]", "value": "binds"},
      {"measurement": "binding", "setting": "[7]", "value": "binds"}
    ]},
    {"molecule": "B3", "values": [
      {"measurement": "binding", "setting": "[8]", "value": "binds"}
    ]}
  ]
}
